Laboratory results as given in US8030017B2, “Thermostable luciferases and methods of production” (Promega Corporation, priority 1997, dated 2011).
Numbering of substitutions follows the chain as printed. At least one read-out could not be matched to a standard name with certainty.

B1: Luc30-4B02: LucPplYG mutant, first cycle of random mutagenesis (protein)
chain: MMKREKNVIYGPEPLHPLEDLTAGEMLFRALRKHSHLPQALVDVVGDESLSYKEFFEATVLLAQSLHNCGYKMNDVVSICAENNTRFFIPVIAAWYIGMIVAPVNESYIPDELCKVMGISKPQIVFTTKNILNKVLEVQSRTNFIKRIIVLDTVENIHGCESLPNFISRYSDGNIANFKPLHFDPVEQVAAILCSSGTTGLPKGVMQTHQNICVRLIHALDPRAGTQLIPGVTVLVYLPFFHAFGFSITLGYFMVGLRVIMSRRFDPEAFLKAIQDYEVRSVINVPSVILFLSKSPLVDKYDLSSLRELCCGAAPLAKEVAEVAAKRLNLPGIRCGFGLTESTSANIHSLRDEFKPGSLGRVTPLMAAKIADRETGKALGPNQVGELCIKGPMVSKGYVNNVEATKEAIDDDGWLHSGDFGYYDEDEHFYVVDRYKELIKYKGSQVAPAELEEILLKNPCIRDVAVVGIPDLEAGELPSAFVVKQPGKEITAKEVYDYLAERVSHTKYLRGGVRFVDSIPRNVTGKITRKELLKQLLEKAGG
modifications: Mutant luciferase
notes: LucPplYG mutant, first cycle of random mutagenesis
B2: Luc81-6G01: LucPplYG mutant luciferase, SEQ ID NO:26 (protein)
chain: B1 chain with V150I, F166G, S262F, P267Q, P356S
modifications: Mutant luciferase

Tests used:
[1] = Apparent KM for ATP of partially purified LucPpl mutant luciferases; type: biochemical; settings: luciferases partially purified from lysates of E. coli by ammonium sulfate precipitation (40-65% saturation fraction)
[2] = Apparent KM for luciferin of partially purified LucPpl mutant luciferases; type: biochemical; settings: luciferases partially purified from lysates of E. coli by ammonium sulfate precipitation (40-65% saturation fraction)

Molecule	Km [1] [µM]	Km [2] [µM]
B1	12	7.8
B2	8	1.9
